Drawing on PMC4960319, this text covers binding for six molecules.

Amino acid sequences for entries named in this document (tags omitted). A change or cut given only in a name is not applied to a line headed by its entry. Chains listed by the source or under a name are the forms on record and can include a tag or linker. Residues count along the entry.
UniProt Q7AKG9: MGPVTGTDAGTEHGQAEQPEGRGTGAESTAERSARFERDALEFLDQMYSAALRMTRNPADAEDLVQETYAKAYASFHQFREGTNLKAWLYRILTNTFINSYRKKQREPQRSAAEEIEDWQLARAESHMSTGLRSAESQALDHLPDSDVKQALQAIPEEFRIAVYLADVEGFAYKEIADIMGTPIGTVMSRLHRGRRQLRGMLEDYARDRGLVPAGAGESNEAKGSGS
σ^R (sigma factor SigR) from Streptomyces coelicolor, residues 5-227, tagless: residues 5-227 of Q7AKG9

Assay [1] has as its target σR of the co-expressed, purified RsrAred.Zn2+-σR complex (Streptomyces coelicolor) (UniProt Q7AKG9). In words: cross-linking; 5 μM purified RsrAred.Zn2+-σR complex with 2 mM BS2G-d0/d4 or BS3-d0/d4 in 20 mM Hepes pH 7.5, 50 mM NaCl, 2 mM DTT, room temperature, 30 min; quenched with 100 mM Tris pH 7.5; SDS-PAGE bands analysed by LC-MS/MS; both purified.
Assay [2] has as its target σR (residues 5-227) (Streptomyces coelicolor) (UniProt Q7AKG9). As to the kind of experiment: ITC; with zinc (+), RsrA preincubated with 1 mM ZnCl2 and buffer exchanged; direct titration for weaker binding mutants (methods: 10 μM RsrA in the cell, 100 μM σR in the syringe); 35 °C, 50 mM Tris pH 7.5, 100 mM NaCl, 2 mM DTT; single binding site model; both purified.
Assay [3] addresses σ^R (sigma factor SigR) from Streptomyces coelicolor, residues 5-227, tagless (Streptomyces coelicolor) (UniProt Q7AKG9). As to the kind of experiment: tryptophan fluorescence time course after oxidation; complex (2 μM) treated with H2O2 (1-10 mM; 10 mM for RsrA* and the cysteine mutants); dissociation followed by σ^R fluorescence (ex 295 nm, em 343 nm); 25 °C, 50 mM Tris pH 7.5, 100 mM NaCl; both purified.

Assay [4] shares this target. As to the kind of experiment: stopped-flow tryptophan fluorescence; association, pseudo-first-order, with stoichiometric zinc: σ^R 125 nM, RsrA 1.25-2.5 μM; 25 or 35 °C, 50 mM Tris pH 7.5, 100 mM NaCl, 2 mM DTT; both purified.
For assay [5] the target is unchanged. In words: stopped-flow tryptophan fluorescence; association, pseudo-first-order, without zinc (apo-RsrA, EDTA-treated): σ^R 125 nM, RsrA 1.25-2.5 μM; 25 or 35 °C, 50 mM Tris pH 7.5, 100 mM NaCl, 2 mM DTT; both purified.
The target is the same in assay [6]. As to the kind of experiment: other fluorescence titration; intrinsic tryptophan emission of σ^R (excitation 295 nm, read at 343 nm); σ^R 1 μM, RsrA^red.Zn^2+ 0.1-2 μM; 25 °C, 50 mM Tris pH 7.5, 100 mM NaCl, 2 mM DTT; both purified.

Changes are numbered by the printed parent chain. Numbers in names are those of the source. No constants are given. Whether binding was seen depends on the method and setting. Some entries that bind do so weakly or less than the wild type. For some assays here: Where a sequence is shown, tags or fusion partners need not be part of it.

B1: RsrA of the co-expressed, purified RsrAred.Zn2+-σR complex (protein, UniProt Q7AKG8 1-105)
chain: MSCGEPHETDCSEILDHLYEFLDKEMPDSDCVKFEHHFEECSPCLEKYGLEQAVKKLVKRCCGQDDVPGDLRAKVMGRLDLIRSGQSVPEHDVAAAPSSSAPQES
Turning to B1, the binding entry in assay [1] is “binds”.

B2: RsrA* C44S (protein, UniProt Q7AKG8 1-105)
chain: B1 chain with C3A, C31A, C44S, C61A, C62A
Consider B2, for which the binding result in assay [2] is given as “no binding (tested: 10 μM in the cell, 100 μM in the syringe)”.

B3: RsrA* Cys41His (protein, UniProt Q7AKG8 1-105)
chain: B1 chain with C3A, C31A, C41H, C61A, C62A
Regarding B3, the binding entry in assay [3] was “no binding (condition: after oxidation with 10 mM H2O2)”.

B4: RsrA* Cys44His (protein, UniProt Q7AKG8 1-105)
chain: B1 chain with C3A, C31A, C44H, C61A, C62A
Regarding B4, the binding entry in assay [3] is “no binding (condition: after oxidation with 10 mM H2O2)”.

B5: RsrA (wild type), anti-sigma factor from Streptomyces coelicolor (protein, UniProt Q7AKG8 1-105)
chain: B1 chain
Regarding B5, the binding result in assay [4], in assay [5] and in assay [6] was “binds” in each case.

B6: RsrA* (RsrA with Cys3, Cys31, Cys61 and Cys62 mutated to alanine) (protein, UniProt Q7AKG8 1-105)
chain: B1 chain with C3A, C31A, C61A, C62A
For the molecule B6, the binding result in assay [3] is on record as “no binding (condition: after oxidation with 10 mM H2O2)”.
